{"source": "the supplement of paper PMC3334620", "note": "Whole data set: some 33,000 sequences, median “E-score (-0.5 to 0.5)” near -8e-05, cut for the highest 2% near 0.23. The list shows a part of the results."}
{"molecular_target": "T1, Nrg2 (UniProt P38082)", "T1 sequence": "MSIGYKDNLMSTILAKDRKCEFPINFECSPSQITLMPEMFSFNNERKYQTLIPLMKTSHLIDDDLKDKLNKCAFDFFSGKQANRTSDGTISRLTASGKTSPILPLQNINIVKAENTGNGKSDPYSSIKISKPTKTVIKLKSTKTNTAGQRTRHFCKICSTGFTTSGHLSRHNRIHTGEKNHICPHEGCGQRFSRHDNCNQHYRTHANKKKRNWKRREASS", "assay": "PBM E-score (8-mer binding enrichment) (E-score (-0.5 to 0.5)); higher = stronger / more preferred TF binding", "details": "protein concentration: 100 nM; construct: GST-full length", "outline": "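Yeast transcription factors, full-length or as DNA-binding domains, were expressed with a GST tag using PURExpress in vitro transcription/translation. At about 100-200 nM they were applied to universal all-10-mer Agilent arrays, double-stranded by primer extension on fresh or once-stripped slides. Fluorescent anti-GST detected bound protein, and masliner normalised the scans. E-scores for ungapped eight-base words, pooled with reverse complements, came from the Universal PBM Analysis Suite.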"}
{"sequence": "CGCGTTCC", "PBM E-score": -0.00864}
{"sequence": "ATTCGACC", "PBM E-score": -0.0786}
{"sequence": "AACCTGTC", "PBM E-score": -0.0794}
{"sequence": "CTGATGAA", "PBM E-score": 0.0121}
{"sequence": "CCCATTAA", "PBM E-score": -0.0676}
{"sequence": "CCACGCGG", "PBM E-score": -0.105}
{"sequence": "GAGTGGGA", "PBM E-score": -0.14}
{"sequence": "CATGGAAA", "PBM E-score": 0.092}
{"sequence": "ACAGCAGG", "PBM E-score": 0.0363}
{"sequence": "AATCATCA", "PBM E-score": 0.171}
{"sequence": "ATGACGGA", "PBM E-score": -0.0207}
{"sequence": "GCTATTTA", "PBM E-score": 0.0652}
{"sequence": "GAAGCATA", "PBM E-score": -0.107}
{"sequence": "ACGCACTG", "PBM E-score": -0.0871}
{"sequence": "AAAAGACA", "PBM E-score": 0.112}
{"sequence": "ACTCTGCC", "PBM E-score": -0.142}
{"sequence": "CTGTTTAC", "PBM E-score": 0.0618}
{"sequence": "CTCCTAAC", "PBM E-score": -0.0925}
{"sequence": "ACCGAGAA", "PBM E-score": 0.0685}
{"sequence": "AATTCATA", "PBM E-score": 0.0927}
{"sequence": "CCAGTTAA", "PBM E-score": 0.193}
{"sequence": "CCATAGAC", "PBM E-score": -0.106}
{"sequence": "GTTATCCA", "PBM E-score": 0.114}
{"sequence": "AACGTAGG", "PBM E-score": -0.148}
{"sequence": "AACACGTA", "PBM E-score": -0.144}
{"sequence": "GACCGTCC", "PBM E-score": -0.165}
{"sequence": "CAAAGCTC", "PBM E-score": -0.198}
{"sequence": "GAGTAGAC", "PBM E-score": 0.00641}
{"sequence": "CCAAACAG", "PBM E-score": 0.0678}
{"sequence": "AGTGACAT", "PBM E-score": 0.0819}
{"sequence": "GCCAGGAA", "PBM E-score": 0.0218}
{"sequence": "GAGCGCTA", "PBM E-score": 0.0609}
{"sequence": "GATGAGAC", "PBM E-score": 0.197}
{"sequence": "CTTACTAA", "PBM E-score": 0.0213}
{"sequence": "CGCGAAAG", "PBM E-score": 0.122}
{"sequence": "CGGGTCAG", "PBM E-score": 0.023}
{"sequence": "GCTCACCC", "PBM E-score": -0.161}
{"sequence": "CTGCCTTC", "PBM E-score": -0.198}
{"sequence": "AAGCCCAT", "PBM E-score": -0.0683}
{"sequence": "AACATCAT", "PBM E-score": 0.0625}
{"sequence": "AAGGCCAA", "PBM E-score": -0.201}
{"sequence": "AGACCTAT", "PBM E-score": -0.0252}
{"sequence": "CCTATTGA", "PBM E-score": 0.0806}
{"sequence": "CCATGGCC", "PBM E-score": -0.0512}
{"sequence": "CATCCAGC", "PBM E-score": -0.0323}
{"sequence": "GGCGGAAC", "PBM E-score": 0.0586}
{"sequence": "AGGCGTCC", "PBM E-score": -0.0544}
{"sequence": "AACAAAAG", "PBM E-score": -0.0749}
{"sequence": "GAGCTAGA", "PBM E-score": -0.0487}
{"sequence": "CCCTGAAC", "PBM E-score": 0.282}
{"sequence": "GACTCTTA", "PBM E-score": 0.0313}
{"sequence": "CTCTGAGA", "PBM E-score": 0.0054}
{"sequence": "ACAATCAT", "PBM E-score": -0.062}
{"sequence": "AGTGAATG", "PBM E-score": 0.172}
{"sequence": "ATGTCTTG", "PBM E-score": -0.162}
{"sequence": "AAGCGAAG", "PBM E-score": 0.00012}
{"sequence": "TACGATCA", "PBM E-score": 0.075}
{"sequence": "GCGCAAGA", "PBM E-score": 0.102}
{"sequence": "ATAGCGCA", "PBM E-score": 0.0651}
{"sequence": "CGTGTATA", "PBM E-score": 0.121}
{"sequence": "GACATAGA", "PBM E-score": -0.0743}
{"sequence": "TACCGCCA", "PBM E-score": 0.0249}
{"sequence": "CGTATGCC", "PBM E-score": -0.176}
{"sequence": "CTCAAAAG", "PBM E-score": 0.0696}
{"sequence": "TCCATTAA", "PBM E-score": 0.00365}
{"sequence": "GCGCCAGA", "PBM E-score": 0.00891}
{"sequence": "TTAGCAAA", "PBM E-score": -0.0742}
{"sequence": "GTATCCAC", "PBM E-score": 0.04}
{"sequence": "AAAGTGCG", "PBM E-score": 0.0872}
{"sequence": "ATTCATAG", "PBM E-score": 0.155}
{"sequence": "CCGGAGCA", "PBM E-score": -0.223}
{"sequence": "ACCGAACA", "PBM E-score": 0.0615}
{"sequence": "CAATTGGC", "PBM E-score": 0.133}
{"sequence": "GCTTGTAC", "PBM E-score": 0.138}
{"sequence": "AGCTCTGC", "PBM E-score": -0.116}
{"sequence": "TGTACAAA", "PBM E-score": 0.0674}
{"sequence": "CTGTATAA", "PBM E-score": -0.00975}
{"sequence": "AGAGTTAG", "PBM E-score": -0.0429}
{"sequence": "AATGTAGA", "PBM E-score": -0.0128}
{"sequence": "AGCTTGCG", "PBM E-score": -0.168}
{"sequence": "AAATTAAT", "PBM E-score": 0.00279}
{"sequence": "TGACGCCA", "PBM E-score": -0.129}
{"sequence": "CATATGGA", "PBM E-score": 0.105}
{"sequence": "GCCTTAGA", "PBM E-score": -0.187}
{"sequence": "CCTACACC", "PBM E-score": -0.103}
{"sequence": "GAGCCGAC", "PBM E-score": -0.343}
